Laboratory results from PMC3380850.
These are yes or no findings as the source states them, for the method shown. In cells and extracts the contact can be indirect. Some binding calls cover weakened binding; strength is not graded here.

Sequences of proteins named here, by UniProt entry; tags and fusion partners are left off.
UniProt Q8CJG0: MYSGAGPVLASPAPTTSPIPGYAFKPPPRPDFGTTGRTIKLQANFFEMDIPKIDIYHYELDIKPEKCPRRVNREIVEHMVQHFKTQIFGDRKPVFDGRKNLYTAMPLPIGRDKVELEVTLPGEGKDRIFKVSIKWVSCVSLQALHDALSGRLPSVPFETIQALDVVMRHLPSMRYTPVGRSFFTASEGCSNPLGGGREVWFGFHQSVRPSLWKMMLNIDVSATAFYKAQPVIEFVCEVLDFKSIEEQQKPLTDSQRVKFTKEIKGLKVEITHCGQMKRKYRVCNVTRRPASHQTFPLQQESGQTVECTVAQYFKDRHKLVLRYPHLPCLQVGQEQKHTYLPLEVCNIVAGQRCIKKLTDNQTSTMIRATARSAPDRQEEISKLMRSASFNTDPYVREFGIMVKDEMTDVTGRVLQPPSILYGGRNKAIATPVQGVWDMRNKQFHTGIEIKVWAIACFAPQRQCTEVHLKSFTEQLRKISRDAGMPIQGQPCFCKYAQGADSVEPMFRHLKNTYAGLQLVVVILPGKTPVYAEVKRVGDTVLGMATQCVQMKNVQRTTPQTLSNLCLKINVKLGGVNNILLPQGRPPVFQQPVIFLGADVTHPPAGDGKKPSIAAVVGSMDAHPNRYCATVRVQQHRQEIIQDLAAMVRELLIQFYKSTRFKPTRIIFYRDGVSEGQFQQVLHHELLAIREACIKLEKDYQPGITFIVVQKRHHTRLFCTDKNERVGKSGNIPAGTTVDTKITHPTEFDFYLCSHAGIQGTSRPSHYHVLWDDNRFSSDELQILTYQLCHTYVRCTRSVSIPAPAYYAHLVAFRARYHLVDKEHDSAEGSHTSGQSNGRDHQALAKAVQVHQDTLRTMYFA

Target: T1, mouse Caprin1 (Cytoplasmic activation- and proliferation-associated protein 1) (mouse (endogenous in brain)) (UniProt Q60865)
T1 sequence: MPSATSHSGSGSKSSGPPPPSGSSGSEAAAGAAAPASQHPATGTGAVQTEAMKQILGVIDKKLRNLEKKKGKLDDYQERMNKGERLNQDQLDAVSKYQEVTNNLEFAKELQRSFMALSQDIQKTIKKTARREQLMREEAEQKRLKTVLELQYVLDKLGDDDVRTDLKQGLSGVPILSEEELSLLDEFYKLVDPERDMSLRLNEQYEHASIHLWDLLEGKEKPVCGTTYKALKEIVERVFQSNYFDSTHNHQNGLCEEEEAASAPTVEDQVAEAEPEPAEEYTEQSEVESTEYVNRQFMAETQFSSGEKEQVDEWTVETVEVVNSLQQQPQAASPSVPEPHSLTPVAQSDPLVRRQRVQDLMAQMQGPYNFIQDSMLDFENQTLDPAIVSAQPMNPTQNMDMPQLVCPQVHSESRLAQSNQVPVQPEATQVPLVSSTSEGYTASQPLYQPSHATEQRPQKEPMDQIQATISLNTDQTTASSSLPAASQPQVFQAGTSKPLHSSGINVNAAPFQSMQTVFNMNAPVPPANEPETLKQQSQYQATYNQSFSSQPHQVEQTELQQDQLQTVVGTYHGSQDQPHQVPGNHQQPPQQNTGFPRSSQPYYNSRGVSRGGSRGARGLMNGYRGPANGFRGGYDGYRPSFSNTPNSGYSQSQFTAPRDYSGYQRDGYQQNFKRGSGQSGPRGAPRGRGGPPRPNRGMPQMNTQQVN
Assay: co-IP; WT and KO mouse brain lysates immunoprecipitated with mAb7G1-1 (which binds Caprin1 and FMRP); two-colour immunoblot (Odyssey, LI-COR) with mAb7G1-1 and rabbit anti-Ago2

**Q.** For Ago2 (from UniProt Q8CJG0 1-860), which binding is on record?
**A.** binds
